Laboratory results as given in paper PMC7819943, “Rice protein-binding microarrays: a tool to detect cis-acting elements near promoter regions in rice”.
Some of the results follow.

biological target: T1, OsSMF1 (Oryza sativa, UniProt Q6ZLB0 1-436); assay: protein-binding microarray (RPBM); PBS, 2% BSA, 51.3 ng/ul salmon testes DNA, 50 uM zinc acetate, 200 nM TF, 25 C, 1 h; high values mean tight binding; settings: protein: recombinant; tags: N-terminal polyhistidine and DsRed monomer fusion (pET32a); chain copies: 2; label: CyDye5-dUTP incorporated in the synthesized complementary strand; 3' TTTTT single-stranded linker to array surface; dsDNA, one strand shown
T1 sequence: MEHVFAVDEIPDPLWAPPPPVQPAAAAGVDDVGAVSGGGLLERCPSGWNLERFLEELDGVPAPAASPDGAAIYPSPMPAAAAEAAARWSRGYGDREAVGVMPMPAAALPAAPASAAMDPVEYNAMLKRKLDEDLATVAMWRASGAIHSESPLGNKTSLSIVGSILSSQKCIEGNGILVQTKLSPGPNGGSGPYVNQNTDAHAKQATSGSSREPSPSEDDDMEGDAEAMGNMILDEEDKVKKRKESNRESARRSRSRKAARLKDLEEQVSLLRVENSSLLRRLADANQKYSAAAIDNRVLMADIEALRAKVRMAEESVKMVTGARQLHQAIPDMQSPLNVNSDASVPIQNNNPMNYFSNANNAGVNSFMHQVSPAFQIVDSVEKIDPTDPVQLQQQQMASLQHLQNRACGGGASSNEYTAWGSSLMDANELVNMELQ
Summary of the method: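 Ni–NTA purification followed expression in E. coli BL21-CodonPlus of transcription factors fused N-terminally to a polyhistidine tag and DsRed. At 200 nM in PBS with 2% BSA, salmon testes DNA and 50 µM zinc acetate, the protein was incubated for 1 h at 25 °C with a custom Agilent array that had been primer-extended with Cy5-dUTP and blocked with 2% BSA. After washing, the array was read on an Axon 4000B scanner. The binding signal is per-feature fluorescence intensity in arbitrary units.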

| Sequence | binding signal |
| --- | --- |
| CGGTTTTAGCTGACGTGGCGCCTACGTGGCAAAGTTGACCCGGAGTCACCTAGTGCAG | 44700 fluorescence intensity (a.u.) |
| ACAGGCGATATGTCACCCTATTTCTGTTGCTGTTCAACGACGGAGTCACCTAGTGCAG | 3530 fluorescence intensity (a.u.) |
| GCAGTGGTCGTGGGCTCGTGGCTGGAAAGTGGAGGAAACCCGGAGTCACCTAGTGCAG | 6130 fluorescence intensity (a.u.) |
| TGTAGAGGAGAAGGGCTGTGATGGTGTGGCGGCGGCGGCGCGGAGTCACCTAGTGCAG | 3200 fluorescence intensity (a.u.) |
| ATGGAGGCGGCGGTGGCGGTGGAGGTGGAGAGGTGAGGAGCGGAGTCACCTAGTGCAG | 3500 fluorescence intensity (a.u.) |
| CCCTTTCTCAGTCCACCCCATGTGTGGTATTTCCCTGTCTCGGAGTCACCTAGTGCAG | 34100 fluorescence intensity (a.u.) |
| CTTTTCGTTTAATTAACGTGGCAAGGAGTGATATATACGACGGAGTCACCTAGTGCAG | 3870 fluorescence intensity (a.u.) |
| ATCGAGCGCGCTGAGACGGTCCAACCTCCTCGGAGGCGTCCGGAGTCACCTAGTGCAG | 11500 fluorescence intensity (a.u.) |
| AGCCCAAGTCTTACCCACCACAAGCCCAACACACCACACTCGGAGTCACCTAGTGCAG | 3800 fluorescence intensity (a.u.) |
| ACGCCCTTGTACACCCTGCCGAATCCGCCGGTGCCGAGCACGGAGTCACCTAGTGCAG | 3190 fluorescence intensity (a.u.) |
| TGGGCTCCGGCGGAGGGTGGTGCGGTGGCGACTGGCGCGGCGGAGTCACCTAGTGCAG | 3510 fluorescence intensity (a.u.) |
| TGATTCGCATTGCATCCATCATTTTAGGATGTTCTACTAGCGGAGTCACCTAGTGCAG | 3310 fluorescence intensity (a.u.) |
| GATGCACCACTGCTGCGTCGCACGTTCCACCCCATTCCACCGGAGTCACCTAGTGCAG | 3520 fluorescence intensity (a.u.) |
| ATATATATATATATATATATATATATATATATGAGCGGGACGGAGTCACCTAGTGCAG | 3970 fluorescence intensity (a.u.) |
| GATTTTCTCTATTTTATTAGAGCACCACGTGGCAGCTTGGCGGAGTCACCTAGTGCAG | 25800 fluorescence intensity (a.u.) |
| GTTTCTTCGTTTTAACACCACGTTTGCACTCTGCTCCACTCGGAGTCACCTAGTGCAG | 4990 fluorescence intensity (a.u.) |
| AATGTTCATCAGTTGACGTATTGGGCGATCTGTTGGAATCCGGAGTCACCTAGTGCAG | 8640 fluorescence intensity (a.u.) |
| TCTGGGTGAAACACTGAAACCTCCAAACGCCAGTCACCGGCGGAGTCACCTAGTGCAG | 3610 fluorescence intensity (a.u.) |
| CTGCGTTACTTCGACATTGCCCGACGTGTTGACTGTGTTGCGGAGTCACCTAGTGCAG | 4070 fluorescence intensity (a.u.) |
| CCTCGCACATGGCCTCCCACATCGATGTGTCAACATAGGCCGGAGTCACCTAGTGCAG | 4360 fluorescence intensity (a.u.) |
| CTTACCAAATTTTAGCAGCGCCAAAATTTTGGTAAATTGGCGGAGTCACCTAGTGCAG | 3380 fluorescence intensity (a.u.) |
| TAAAGATTCAAGGCCATGACGCCATGAAGATTCAAGGCCCCGGAGTCACCTAGTGCAG | 4000 fluorescence intensity (a.u.) |
| TCCTCGTCGCCGTCGTCGTGGCGACGTGGGCAACCGACGCCGGAGTCACCTAGTGCAG | 4810 fluorescence intensity (a.u.) |

Exported with tabs: part of the list above.
Sequence	binding signal
CCCTTTCTCAGTCCACCCCATGTGTGGTATTTCCCTGTCTCGGAGTCACCTAGTGCAG	34100 fluorescence intensity (a.u.)
CTTTTCGTTTAATTAACGTGGCAAGGAGTGATATATACGACGGAGTCACCTAGTGCAG	3870 fluorescence intensity (a.u.)
ATCGAGCGCGCTGAGACGGTCCAACCTCCTCGGAGGCGTCCGGAGTCACCTAGTGCAG	11500 fluorescence intensity (a.u.)
AGCCCAAGTCTTACCCACCACAAGCCCAACACACCACACTCGGAGTCACCTAGTGCAG	3800 fluorescence intensity (a.u.)
ACGCCCTTGTACACCCTGCCGAATCCGCCGGTGCCGAGCACGGAGTCACCTAGTGCAG	3190 fluorescence intensity (a.u.)
TGGGCTCCGGCGGAGGGTGGTGCGGTGGCGACTGGCGCGGCGGAGTCACCTAGTGCAG	3510 fluorescence intensity (a.u.)
